doi:10.1101/2022.02.01.475276

Protein sequences, listed by entry. Tags and fused reporters are not part of them. Lines headed by an entry give the natural chain unless they say otherwise; changes in a name come on top. Chains listed by the source or under a name are the forms on record and can include a tag or linker. Residues count along the entry.
UniProt P81133: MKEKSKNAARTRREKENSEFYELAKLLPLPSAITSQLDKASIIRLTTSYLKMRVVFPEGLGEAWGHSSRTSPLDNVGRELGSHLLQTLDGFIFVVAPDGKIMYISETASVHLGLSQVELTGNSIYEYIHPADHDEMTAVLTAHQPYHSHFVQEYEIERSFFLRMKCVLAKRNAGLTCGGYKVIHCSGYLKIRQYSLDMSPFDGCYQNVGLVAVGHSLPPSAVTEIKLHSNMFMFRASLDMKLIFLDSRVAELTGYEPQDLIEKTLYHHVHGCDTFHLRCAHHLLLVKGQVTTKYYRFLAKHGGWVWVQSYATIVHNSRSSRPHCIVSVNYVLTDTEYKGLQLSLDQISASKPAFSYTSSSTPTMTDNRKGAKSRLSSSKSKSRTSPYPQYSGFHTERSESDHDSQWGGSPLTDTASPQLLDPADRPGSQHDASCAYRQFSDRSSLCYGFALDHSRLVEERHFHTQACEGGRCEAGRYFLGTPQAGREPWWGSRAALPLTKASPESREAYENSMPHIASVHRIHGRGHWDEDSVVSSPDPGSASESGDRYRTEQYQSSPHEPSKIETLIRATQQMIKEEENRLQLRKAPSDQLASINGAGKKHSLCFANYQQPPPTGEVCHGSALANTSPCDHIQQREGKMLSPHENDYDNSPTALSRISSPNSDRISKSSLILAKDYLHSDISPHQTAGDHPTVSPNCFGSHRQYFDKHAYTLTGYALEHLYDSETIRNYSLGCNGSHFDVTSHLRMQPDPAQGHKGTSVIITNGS
hSim1.3xFlag2xStrep(1-348): residues 1-348 of P81133
hSim1(R171H).3xFlag2xStrep(1-348) (P81133, form named): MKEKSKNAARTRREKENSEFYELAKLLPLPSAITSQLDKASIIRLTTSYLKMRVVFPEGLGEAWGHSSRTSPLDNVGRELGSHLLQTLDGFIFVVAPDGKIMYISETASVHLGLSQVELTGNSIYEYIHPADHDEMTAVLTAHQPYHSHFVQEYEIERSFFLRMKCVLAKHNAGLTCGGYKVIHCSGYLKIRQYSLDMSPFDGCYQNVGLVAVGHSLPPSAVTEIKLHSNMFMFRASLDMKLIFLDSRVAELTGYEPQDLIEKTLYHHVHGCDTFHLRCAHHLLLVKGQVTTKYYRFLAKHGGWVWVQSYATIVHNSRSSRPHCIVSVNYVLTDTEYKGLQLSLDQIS
UniProt P27540: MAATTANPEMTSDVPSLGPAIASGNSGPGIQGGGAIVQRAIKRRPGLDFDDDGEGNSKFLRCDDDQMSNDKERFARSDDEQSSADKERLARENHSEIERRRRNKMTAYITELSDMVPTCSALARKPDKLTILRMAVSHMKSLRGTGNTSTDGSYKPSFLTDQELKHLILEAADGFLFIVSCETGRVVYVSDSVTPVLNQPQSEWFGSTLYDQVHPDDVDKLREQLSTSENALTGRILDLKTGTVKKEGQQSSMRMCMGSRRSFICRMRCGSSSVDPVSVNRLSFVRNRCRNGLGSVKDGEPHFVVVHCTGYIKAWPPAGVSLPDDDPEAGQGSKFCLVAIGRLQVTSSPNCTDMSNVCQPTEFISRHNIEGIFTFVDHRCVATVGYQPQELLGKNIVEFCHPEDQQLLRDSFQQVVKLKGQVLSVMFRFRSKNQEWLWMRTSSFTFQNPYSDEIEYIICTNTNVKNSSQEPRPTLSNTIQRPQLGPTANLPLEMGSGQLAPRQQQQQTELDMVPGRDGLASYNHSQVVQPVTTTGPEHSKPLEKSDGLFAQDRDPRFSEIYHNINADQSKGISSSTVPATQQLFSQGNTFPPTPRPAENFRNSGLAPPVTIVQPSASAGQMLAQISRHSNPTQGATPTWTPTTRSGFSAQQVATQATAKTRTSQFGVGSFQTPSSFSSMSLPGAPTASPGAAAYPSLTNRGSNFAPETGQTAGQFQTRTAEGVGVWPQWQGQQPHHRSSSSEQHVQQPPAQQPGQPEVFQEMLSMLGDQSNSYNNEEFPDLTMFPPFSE
UniProt Q9HBZ2, residues 1-455: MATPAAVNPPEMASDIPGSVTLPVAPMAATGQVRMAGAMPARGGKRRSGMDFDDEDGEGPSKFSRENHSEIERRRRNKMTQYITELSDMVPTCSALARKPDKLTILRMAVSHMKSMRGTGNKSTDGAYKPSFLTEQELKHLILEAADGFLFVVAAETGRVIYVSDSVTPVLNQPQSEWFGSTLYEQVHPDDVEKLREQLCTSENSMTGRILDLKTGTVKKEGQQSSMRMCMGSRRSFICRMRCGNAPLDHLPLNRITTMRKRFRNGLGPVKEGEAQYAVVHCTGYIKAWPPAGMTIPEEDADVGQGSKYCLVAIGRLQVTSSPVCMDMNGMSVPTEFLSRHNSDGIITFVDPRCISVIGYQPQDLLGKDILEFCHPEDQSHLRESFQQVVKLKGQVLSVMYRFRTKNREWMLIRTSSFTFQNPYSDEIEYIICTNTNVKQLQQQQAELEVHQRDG

How the values were obtained:
Experiment in all cases: affinity purification with mass spectrometry
[1] = target: hSIM1.R171H-2xHA-3xFlag (human) (UniProt P81133)
[2] = target: hSim1.3xFlag2xStrep(1-348) (human) (UniProt P81133)
[3] = target: hSim1(R171H).3xFlag2xStrep(1-348) (human) (UniProt P81133)
[4] = target: hSIM1-2xHA-3xFlag (human) (UniProt P81133)

Measured: binding

ARNT (endogenous, HEK293T) (from UniProt P27540 1-789)
binds: all assays above

hARNT2(1-455)-Myc (from UniProt Q9HBZ2 1-455) (domain or fragment)
binds: [2] | [3]

These are yes or no findings as the source states them, for the method shown. Binding seen in cells or lysates may run through a third protein. A yes stands for co-enrichment or nearness to the bait. Other partners may have been found.
